This is one part of the list. Shown are side measurements of this screen, not its main read-out; they come without a call.
Assay: NIH3T3 cell viability loss – plate reader, cherry-pick, two tests, cytotoxicity control, dose response (AID 651900)
Details: test 2 concentration series, at 26 µM

**Q.** For `COC(=O)C1C(=O)C=C(Nc2ccc(F)cc2)CC1c1ccc(OC)cc1` (stereo not drawn), which activity is on record?
**A.** -1.72%

**Q.** For `COc1ccc(CCN(C)c2ccc(C(N)=O)cc2[N+](=O)[O-])cc1OC`, which activity is on record?
**A.** -9.16%

**Q.** With `Cc1ccc(S(=O)(=O)N(C)C)cc1NC(=O)CSc1nncs1` as the molecule, how does the activity read?
**A.** -1.48%

**Q.** With `O=C(CSc1nc2c(c(=O)n1-c1ccccc1)SCC2)N1CCN(c2ccccc2)CC1` as the molecule, how does the activity read?
**A.** -4.99%

**Q.** With `O=C(Nc1ccc(F)c(F)c1)c1ccc(-n2cncn2)c([N+](=O)[O-])c1` as the molecule, how does the activity read?
**A.** 2.21%

**Q.** With `O=C(Nc1cccc(F)c1)C1CCCN(c2cnccn2)C1` (stereo not drawn) as the molecule, how does the activity read?
**A.** 8.11%

**Q.** With `CC1=C(C#N)C(c2cccnc2)C2=C(CC(c3ccc(Cl)cc3)CC2=O)N1` (stereo not drawn) as the molecule, how does the activity read?
**A.** -2.76%

**Q.** For `Cc1ccc(NC(=O)CSc2nc(=O)n(CCCN3CCOCC3)c3c2CCCC3)cc1F`, which activity is on record?
**A.** 6.94%

**Q.** Which activity does the source give for `CC(=O)c1ccc(N2CCN(C(=O)Cc3cccs3)CC2)cc1` here?
**A.** -0.012%

**Q.** Which activity does the source give for `O=C(c1ccc(S(=O)(=O)Nc2ccccc2F)cc1)N1CCN(c2ccccc2O)CC1` here?
**A.** -5.39%

**Q.** Which activity does the source give for `COc1ccc(-c2nc3ccc(Cl)cn3c2Cc2ccccc2)cc1OC` here?
**A.** -6.73%

**Q.** With `Nn1c(SCCOc2ccccc2)nnc1-c1cccnc1` as the molecule, how does the activity read?
**A.** -4.92%

**Q.** For `CCN(CC)CCNC(=O)c1cn(CC)c2ccc(S(=O)(=O)N3CCc4ccccc4C3)cc2c1=O`, which activity is on record?
**A.** 0.107%

**Q.** Which activity does the source give for `COc1ccc(-c2cc(NC=O)c3ncc(-c4cccc(C(=O)N(C)C)c4)n3c2)cn1` here?
**A.** -3.68%

**Q.** With `CC(=O)c1ccc(C(=O)N2CCCC(CO)(Cc3ccccc3C)C2)s1` (stereo not drawn) as the molecule, how does the activity read?
**A.** -3.6%

**Q.** For `CC1CCCN(c2ccc(C(=O)Nc3cccnc3)cc2[N+](=O)[O-])C1` (stereo not drawn), which activity is on record?
**A.** -8.58%

**Q.** Which activity does the source give for `COc1cc(OC)c(C(=O)Nc2cccnc2)cc1OC` here?
**A.** -3.11%

**Q.** With `O=C1CCCc2c1cc(C(=O)NCCCN1CCOCC1)c(=O)n2-c1ccc(Cl)cc1` as the molecule, how does the activity read?
**A.** -2.13%

**Q.** For `Cn1ncc2cc3c(Nc4ccc(Cl)cc4)cccc3nc21`, which activity is on record?
**A.** -2.89%

**Q.** With `O=C(Nc1ccc(NS(=O)(=O)c2ccccc2)cc1)c1cccnc1` as the molecule, how does the activity read?
**A.** -3.36%

**Q.** For `O=C(C[n+]1cc(-c2ccc(Cl)cc2)n2c1CCC2)N1c2ccccc2Sc2ccccc21`, which activity is on record?
**A.** 0.066%

**Q.** Which activity does the source give for `CC(C)(C)c1cc(C(=O)Nc2cccnc2)cc(C(=O)Nc2cccnc2)c1` here?
**A.** 7.7%

**Q.** Which activity does the source give for `O=C(Nc1ccc2nccnc2c1)c1cnccn1` here?
**A.** -1.65%

**Q.** For `COCCN1C(=O)c2ccc(C(=O)Nc3cccnc3)cc2C1=O`, which activity is on record?
**A.** 3.17%

**Q.** With `Fc1ccc2[nH]c3c(NCCN4CCOCC4)ncnc3c2c1` as the molecule, how does the activity read?
**A.** -1.95%

**Q.** Which activity does the source give for `Cc1nc2nc(SCC(=O)NCCCN3CCOCC3)nn2c(C)c1Cc1ccccc1` here?
**A.** 8.93%

**Q.** Which activity does the source give for `O=C(CSc1nc2ccccc2c(=O)n1-c1ccccc1)N1CCN(CCO)CC1` here?
**A.** 0.387%

**Q.** Which activity does the source give for `CCOC(=O)CNC(=O)c1sc2ncnc(N3CCc4ccccc4C3)c2c1C` here?
**A.** 4.25%

**Q.** Which activity does the source give for `O=C(Nc1cccnc1)C1CCN(S(=O)(=O)c2ccc(Cl)cc2)CC1` here?
**A.** -2.19%

**Q.** With `CC(=O)c1ccc(C(=O)N2CCCC(C(=O)c3ccc(Cl)cc3)C2)s1` (stereo not drawn) as the molecule, how does the activity read?
**A.** -2.09%

**Q.** For `O=C(COc1ccc2ccc(=O)oc2c1)Nc1cccnc1`, which activity is on record?
**A.** -3.91%

**Q.** With `COc1ccc(NC2c3ccccc3C(=O)N2c2cccnc2)cc1Cl` (stereo not drawn) as the molecule, how does the activity read?
**A.** -2.74%

**Q.** Which activity does the source give for `Nn1c(SCc2nc3ccccc3[nH]2)nnc1-c1cccnc1` here?
**A.** 0.63%

Source: PubChem BioAssay AID651900 (Broad Institute, 2012)
